# Assay results reported in PubChem BioAssay AID493014 (National Center for Advancing Translational Sciences (NCATS), 2011).
# Some of the results follow. Shown are side measurements of this screen, not its main read-out; they come without a call. The list favours compounds with an active or inconclusive main result. The note in brackets gives the kind of curve behind each potency; many fits are weak.
# Assay: qHTS Assay to Find Inhibitors of Chronic Active B-Cell Receptor Signaling
# Settings: ABC-DLBCL IkBa-CBG/CBR reporter, luminescence ratio (green luciferase fused to IkBa over red control in TMD8 lymphoma cells), 4 h
# Summary of the method: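 Compounds up to 46 uM were incubated four hours with TMD8 cells whose green CBG68 luciferase is fused to IkappaBalpha; red CBR luminescence normalised the signal, and concentration-effect curves were fitted to fusion, red and ratio data.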
# [1] = measured here: CBR red luminescence, cell number
# [2] = measured here: IkBa-CBG green luminescence
Structure (SMILES),AC50 [1],AC50 [2]
CCNc1ccc(C(=O)NN=C2CCCC2)cc1[N+](=O)[O-],"2.82 µM [falling, partial curve, poor fit]",
COc1ccccc1/C=C/C(=O)OCC(=O)NC1CC1,"29.1 µM [falling, single point]",
CCc1ccc(CN2C(=O)c3ccccc3C2C(=O)NCCc2ccc(OC)c(OC)c2)cc1 (stereo not drawn),"5.62 µM [rising, partial curve, poor fit]",
CCc1cc(C(=O)N2CCCC(Nc3ccc(F)c(F)c3)C2)n(C)n1 (stereo not drawn),"6.31 µM [rising, single point]",
COc1cccc(NC(=O)CSc2nc3ccccc3nc2N2CCOCC2)c1,"14.1 µM [falling, single point]",
O=C(CSc1nc2ccccc2c(=O)n1Cc1ccccc1)Nc1ccc(Br)cc1C(=O)O,"7.94 µM [falling, partial curve, poor fit]",
Cc1ccc(NC(NC(=O)c2ccccn2)C(Cl)(Cl)Cl)cc1 (stereo not drawn),"17.8 µM [falling, single point]",
CCc1nnc(NS(=O)(=O)c2ccc(N/C=C\C(=O)c3cccc4ccccc34)cc2)s1,"25.9 µM [rising, single point]",
Cc1ccccc1NC1=NCC(c2ccc([N+](=O)[O-])cc2)S1 (stereo not drawn),"1 µM [falling, full curve]",
CCN(CC)S(=O)(=O)c1ccc(Cl)c(C(=O)OC)c1,"13 µM [rising, partial curve, poor fit]",
Cc1cc(C)n(C(N)=NC(=O)c2ccc([N+](=O)[O-])cc2)n1,"0.316 µM [rising, full curve, poor fit]",
CCOC(=O)c1sc(NC(=O)c2sccc2C)cc1C,"8.2 µM [falling, partial curve]",
CCOC(=O)CSC1=C(C#N)C(c2ccccc2OCC)C(C#N)C(=O)N1 (stereo not drawn),"35.5 µM [rising, single point]","35.5 µM [falling, partial curve, poor fit]"
CC(=O)Nc1ccc(S(=O)(=O)N2CCCC2C(=O)Nc2ccc3c(c2)OCCO3)cc1 (stereo not drawn),"3.98 µM [rising, single point]",
N#CC(C#N)=C1C=CC=CN1/C(=C\c1ccco1)C(=O)c1ccc(-c2ccccc2)cc1,"25.9 µM [falling, single point]","23.1 µM [rising, partial curve, poor fit]"
COC(=O)CSc1nc(N)c(C#N)c(-c2ccco2)c1C#N,"8.91 µM [falling, partial curve, poor fit]",
O=C(O)c1ccc(S(=O)(=O)/N=C2\C=C(Nc3ccccc3F)C(=O)c3ccccc32)cc1,"3.98 µM [falling, full curve]",
COc1cc(C)c(NC(=S)Nc2cccc(Cl)c2)cc1OC,"23.1 µM [rising, single point]",
COc1cc(OC)cc(C(=O)NC2CCN(C(=O)N3c4ccccc4Sc4ccccc43)CC2)c1,"3.55 µM [rising, partial curve, poor fit]",
Cc1ccc(NC(=S)NCc2ccco2)c(C)c1,"35.5 µM [rising, single point]",
O=C(NCCN1CCOCC1)c1ccncc1,"29.1 µM [rising, single point]",

Structure (SMILES),AC50 [1],AC50 [2]
O=C(/C=C/c1ccco1)Nc1ccc(Cl)c(S(=O)(=O)N2CCOCC2)c1,"15.8 µM [falling, single point]",
CCOC(=O)c1nn(-c2ccc(Cl)cc2Cl)c(=N)c(C#N)c1C,"5.62 µM [rising, single point]",
Cc1ccc(C(=O)NCc2cccnc2)cc1S(=O)(=O)Nc1ccccc1,"35.5 µM [rising, single point]",
CCC(C(=O)NC1CCCC1)N(Cc1ccc2c(c1)OCO2)C(=O)c1snc(C(N)=O)c1N (stereo not drawn),"1.41 µM [falling, partial curve, poor fit]",
Cc1ccc(OCC(=O)O/N=C(\N)c2cccnc2)cc1,"0.562 µM [rising, partial curve, poor fit]",
COCCNC(=S)N/N=C(\C)c1ccccc1O,"16.4 µM [rising, partial curve]",
O=C(COc1ccc2c(c1)CCC2)N1CCc2ccccc21,"35.5 µM [falling, single point]",
O=C(COC(=O)COc1ccccc1)NC1CCCC1,"23.1 µM [rising, single point]",
O=C1CN(C(=O)c2ccc(Br)o2)C(c2ccccc2)c2cc(Br)ccc2N1 (stereo not drawn),"11.2 µM [falling, partial curve]","12.6 µM [rising, partial curve, poor fit]"
Cc1ccc(NC(=O)CNC(C)c2ccccc2)cc1 (stereo not drawn),"5.01 µM [rising, full curve]",
CCn1c(SCC(=O)Nc2cccc(NC(C)=O)c2)nnc1C(C)C,"29.1 µM [rising, single point]",
Cc1nn(C(=O)c2ccco2)c(C)c1Sc1ccc([N+](=O)[O-])cc1,"4.11 µM [rising, single point]",
N#Cc1ccc(Oc2cnccn2)cc1,"25.1 µM [rising, partial curve, poor fit]",
Fc1cccc(COc2ccccc2C(=S)N2CCCC2)c1,"0.112 µM [rising, full curve, poor fit]",
S=c1[nH]nc(-c2cc(-c3ccccc3)n[nH]2)n1/N=C/c1c2ccccc2cc2ccccc12,"35.5 µM [falling, single point]",
COc1ccc(NC(=O)C2CCCN(C(=O)Nc3ccc(OC)cc3)C2)cc1 (stereo not drawn),"35.5 µM [rising, single point]",
COc1cc(NS(C)(=O)=O)ccc1Nc1c2ccccc2nc2ccccc12,"20.6 µM [falling, partial curve, poor fit]","9.2 µM [rising, partial curve, poor fit]"
CS(=O)(=O)Nc1ccc(C2=NN(C(=O)C3CCCCC3)C(c3cccs3)C2)cc1 (stereo not drawn),"32.6 µM [falling, single point]",
Cc1ccc(NC2=C(Cl)C(=O)OC2OC(=O)c2ccco2)cc1C (stereo not drawn),"7.31 µM [falling, partial curve]",
N#Cc1nc(-c2ccc(Cl)cc2)oc1NCC1CCCO1 (stereo not drawn),"2 µM [rising, full curve]",
Cc1cc(SCC(=O)Nc2cccc(S(=O)(=O)NC3=NCCCCC3)c2)nc2ccccc12,"11.2 µM [falling, partial curve]",

# Single entries from the results shown:
# Under AC50 [1], O=C(COc1ccc2c(c1)CCC2)N1CCc2ccccc21 reads 35.5 µM [falling, single point]
# Under AC50 [1], CCOC(=O)c1nn(-c2ccc(Cl)cc2Cl)c(=N)c(C#N)c1C reads 5.62 µM [rising, single point]

# The list goes on.

Structure (SMILES),AC50 [1],AC50 [2]
S=C(NCc1ccc(Cl)cc1)Nc1ccc(Cl)cc1Cl,"14.6 µM [rising, partial curve]",
COC(=O)C1=C(C)N(c2cc(C)cc(C)c2)/C(=C/c2ccco2)C1=O,"35.5 µM [falling, single point]",
O=C(CCNC(=O)c1ccccc1Cl)Nc1cc(S(=O)(=O)N2CCOCC2)ccc1N1CCCC1,"20 µM [rising, single point]",
CCOc1ccc(NC(=O)CSc2nccn2C)cc1,"32.6 µM [rising, partial curve, poor fit]",
COc1ccc(-c2nc(-c3cccnc3)no2)cc1OC,"1.78 µM [rising, partial curve]",
CC(=O)Nc1ccc(NC(C)=O)s1,"29.1 µM [rising, single point]",
Cc1cc(C)cc(N2C(=O)N(CC(=O)c3ccc(Br)cc3)c3ccccc3S2(=O)=O)c1,"0.1 µM [rising, full curve, poor fit]",
Cc1nn(C(=O)c2cccc([N+](=O)[O-])c2)c(C)c1Sc1ccccc1,"3.55 µM [falling, single point]",
C=CCc1c(C)nc(-c2ccccc2)nc1N/N=C/c1ccncc1,"5.62 µM [falling, partial curve]",
COc1ccccc1OCc1nnc(SCC(=O)NCc2ccco2)n1-c1ccccc1,"18.4 µM [rising, partial curve, poor fit]",
OCCNc1nc(Nc2ccc(Cl)c(Cl)c2)nc2ccccc12,"12.6 µM [falling, single point]",
COc1ccc(CC(=O)Nc2oc(-c3ccccc3)c(-c3ccccc3)c2C#N)cc1OC,"1.64 µM [falling, full curve]","3.66 µM [rising, full curve]"
O=C(NCCc1ccccn1)c1n[nH]c(=O)c2ccccc12,"8.91 µM [falling, partial curve, poor fit]",
COC(=O)c1ccc(CSc2nnc(Nc3cccc(OC)c3)s2)o1,"22.4 µM [falling, partial curve, poor fit]",
Cc1nnc(NC(=O)c2oc3c(ccc4ccccc43)c2C)s1,"14.1 µM [rising, single point]",
COc1ccc(-c2nn(-c3ccccc3)cc2/C=N/O)cc1,"35.5 µM [falling, single point]",
CC(=O)NC12CC3CC(C1)CC(C(=O)Nc1nc4ccc(F)cc4s1)(C3)C2,"31.6 µM [falling, partial curve, poor fit]",
COc1ccc(C(=O)NCC(=O)OCC(=O)Nc2sccc2C#N)cc1OC,"7.94 µM [rising, partial curve, poor fit]",
COc1ccc(CCN2C(=O)CSC2=Nc2ccc(C)cc2C)cc1OC,"5.62 µM [rising, single point]",
O=C(CS(=O)(=O)Cc1ccccc1)Nc1nnc(C2CCCCC2)s1,"31.6 µM [rising, single point]",
COC(=O)c1ccc(OS(=O)(=O)N(C)C)cc1,"14.1 µM [rising, single point]",

# Sorted by number of heavy atoms (descending): some entries from above
Structure (SMILES),AC50 [1],AC50 [2]
O=C(CCNC(=O)c1ccccc1Cl)Nc1cc(S(=O)(=O)N2CCOCC2)ccc1N1CCCC1,"20 µM [rising, single point]",
COc1ccc(CC(=O)Nc2oc(-c3ccccc3)c(-c3ccccc3)c2C#N)cc1OC,"1.64 µM [falling, full curve]","3.66 µM [rising, full curve]"
COc1ccccc1OCc1nnc(SCC(=O)NCc2ccco2)n1-c1ccccc1,"18.4 µM [rising, partial curve, poor fit]",
Cc1cc(C)cc(N2C(=O)N(CC(=O)c3ccc(Br)cc3)c3ccccc3S2(=O)=O)c1,"0.1 µM [rising, full curve, poor fit]",
COc1ccc(C(=O)NCC(=O)OCC(=O)Nc2sccc2C#N)cc1OC,"7.94 µM [rising, partial curve, poor fit]",
CC(=O)NC12CC3CC(C1)CC(C(=O)Nc1nc4ccc(F)cc4s1)(C3)C2,"31.6 µM [falling, partial curve, poor fit]",
Cc1nn(C(=O)c2cccc([N+](=O)[O-])c2)c(C)c1Sc1ccccc1,"3.55 µM [falling, single point]",
Cc1nnc(NC(=O)c2oc3c(ccc4ccccc43)c2C)s1,"14.1 µM [rising, single point]",
COc1ccc(-c2nn(-c3ccccc3)cc2/C=N/O)cc1,"35.5 µM [falling, single point]",
COc1ccc(-c2nc(-c3cccnc3)no2)cc1OC,"1.78 µM [rising, partial curve]",
CCOc1ccc(NC(=O)CSc2nccn2C)cc1,"32.6 µM [rising, partial curve, poor fit]",
COC(=O)c1ccc(OS(=O)(=O)N(C)C)cc1,"14.1 µM [rising, single point]",
CC(=O)Nc1ccc(NC(C)=O)s1,"29.1 µM [rising, single point]",
